Source: PubChem BioAssay AID434947 (Broad Institute, 2010)
Hit rate of the full screen: of about 2,200 compounds, about 15 (0.7%) were called active.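 Rule for the calls: active = fitted half-maximal concentration for loss of luminescence signal no more than a set limit of log units above the top tested concentration; inconclusive = flat fit with 30 to 70% signal loss, or invalid fit; inactive = half-maximal concentration above that set limit.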 Some of the results follow.

assay: ADP-Glo luciferase signal interference – biochemical, luminescence, cell-free, homogeneous, artefact control for GSK3beta inhibitor project, dose response (AID 434947); conditions: Cell-free ADP-Glo reagents, 5 uM ADP;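 note: kinase-free counter screen of ADP-Glo detection reagents for GSK3beta hits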

EC50, inactive:
O=C(NCC(c1ccco1)N1CCc2ccccc21)c1c(F)cccc1F (centres undefined) > 30 µM, O=C(O)c1ccc(N/N=C/c2ccc(-c3cccc(Cl)c3)o2)cc1 > 30 µM, Cc1ccnc(NC(=O)c2ccc([N+](=O)[O-])s2)c1 > 30 µM, COc1cccc(-c2nc(SCC(=O)Nc3nc(-c4ccccc4)c(C)s3)[nH]c(=O)c2C#N)c1 > 30 µM, CCOC(=O)CCNCC1COc2ccccc2O1 (centres undefined) > 30 µM, O=C(COc1ccccc1[N+](=O)[O-])N/N=C/c1ccc[nH]1 > 30 µM, CC(=O)CSc1nc(-c2cccs2)c(C#N)c(=O)[nH]1 > 30 µM, Cc1cc(NC(=O)CCN2CCC(C)CC2)ccc1Br > 30 µM, CCCn1nc(NC(=O)C(C)C)c2cc3cc(OC)ccc3nc21 > 30 µM, CCSc1nnc(-c2cccs2)o1 > 30 µM, CSc1nc(C)cc(-n2ccc(=O)[nH]c2=O)n1 > 30 µM, c1ccc(-c2nnc(-c3ccncc3)nc2-c2ccccc2)cc1 > 30 µM, COc1ccc(-c2cn3c(C)c(C(=O)Nc4ccncc4)sc3n2)cc1 > 30 µM, O=C(N/N=C/c1ccc(N2CCCC2)c([N+](=O)[O-])c1)c1cccnc1 > 30 µM, CCOC(=O)/C(C(=O)Nc1ccc(Cl)cc1Cl)=C1/NC(C)(C)Cc2ccccc21 > 30 µM, CC(C)=CCc1c(O)cc2c(=O)c3ccc(O)cc3oc2c1O > 30 µM, CC(C)Cn1nc(NC(=O)c2cccs2)c2cc3ccccc3nc21 > 30 µM, O=C1Nc2cc(C(=O)NCCN3CCCCCC3)ccc2S/C1=C\c1ccccc1 > 30 µM, CS(=O)(=O)c1nncn1-c1ccccc1 > 30 µM, CCC(Sc1ccc2nnc(-c3ccc(F)cc3)n2n1)C(=O)OC (centres undefined) > 30 µM, CCOC(=O)c1cnc2ccc(Cl)cc2c1N1CCN(C)CC1 > 30 µM, CCCN(CCC)Cc1c(C(=O)N/N=C/c2ccncc2)nnn1-c1nonc1N > 30 µM, COC(=O)C(C(=O)OC)c1ccc(NC(=O)c2cccc(Cl)c2)cc1 > 30 µM, O=C1NC(=Nc2ccccc2Cl)S/C1=C\c1ccc(C(=O)O)cc1 > 30 µM, CO/N=C/c1ccc(Oc2ccc([N+](=O)[O-])cc2[N+](=O)[O-])c(OC)c1 > 30 µM, COc1ccc(-c2c(C)oc3ccc(C)cc23)cc1 > 1.2 µM, O=C(CCC1COc2ccccc2O1)NCC1COc2ccccc2O1 (centres undefined) > 30 µM, O=Cc1cn(CCC(=O)O)nc1-c1cccc2ccccc12 > 30 µM, Cc1cc(OCC(F)(F)C(F)(F)C(F)(F)C(F)F)nc(N)n1 > 30 µM, CCCc1cc(C(=O)Nc2cc(Br)ccc2O)no1 > 30 µM, CCC(=O)n1nc(-c2ccc(OC)cc2)nc1N > 30 µM, Cc1cc2c(=O)oc(-c3ccc(F)cc3)nc2s1 > 30 µM, Cc1ccc(C(=O)N/N=C2\CCCc3ccccc32)c(C)c1 > 30 µM, Nc1nc(NCc2ccc(Cl)cc2)nc(NCCO)c1[N+](=O)[O-] > 30 µM, Nc1nc(N)nc(-c2cc(Cl)ccc2Cl)n1 > 30 µM, COc1ccc2oc(C)c(C(=O)c3ccc(C)cc3)c2c1 > 30 µM, O=C(O)c1ccccc1Nc1ccc([N+](=O)[O-])cc1 > 30 µM, CC(C)=CCc1c(O)c(CC=C(C)C)c2c(c1O)C(=O)CC(c1ccc(O)cc1)O2 (centres undefined) > 30 µM, CC(C)c1ccc(NC2=CC(=O)CC(C)(C)C2)cc1 > 30 µM, NC(=O)c1ccc(N2CCCCCC2)c([N+](=O)[O-])c1 > 30 µM, COc1ccc(Nc2nc(NCCN3CCOCC3)nc(Nc3ccc(OC)cc3)n2)cc1 > 30 µM, Cn1cc(S(=O)(=O)NCc2ccc(F)cc2)c(=O)n(C)c1=O > 30 µM, CSc1nc(-c2cccs2)c(C#N)c(=O)[nH]1 > 30 µM, COCCn1c(SCC(=O)Nc2nc(C)c(Cl)cc2Cl)nc2ccccc21 > 30 µM, Cc1ccc(C(=O)c2coc3ccc(O)c(Cl)c23)cc1 > 30 µM, CCCc1cc(=O)oc2cc(C)c3c(C)coc3c12 > 30 µM, Cc1nnc(SCC(=O)N2CCC(C(=O)Nc3nccs3)CC2)n1Cc1ccccc1 > 30 µM, CN(C)C=NC(=O)/C(C#N)=C1\CCc2ccccc2N1 > 30 µM, COc1ccc(NC(=O)c2sc(=S)[nH]c2N)cc1 > 30 µM, Clc1ccccc1Nc1nc(-c2ccncc2)nc2ccccc12 > 30 µM, COCCCn1c(-c2ccc(OC)cc2)nc2nc3ccccc3nc21 > 30 µM, Cc1ccccc1-c1nc(CN2CCC(C(=O)N3CCN(c4ccccn4)CC3)CC2)c(C)o1 > 30 µM, CCCN(CCC)Cc1c(C(=O)N/N=C/c2ccsc2)nnn1-c1nonc1N > 30 µM, Cc1ccc(C(=O)Nc2ccccc2C(=O)NCc2ccco2)cc1S(=O)(=O)N1CCCCC1 > 30 µM, O=C(Nc1ccccn1)c1ccc(C(=O)Nc2ccccn2)cc1 > 30 µM, CC(C(=O)NCc1ccccc1)n1cc([N+](=O)[O-])cn1 (centres undefined) > 30 µM, O=C(O/N=C\c1ccc(N2CCCCC2)c([N+](=O)[O-])c1)c1ccc(Cl)cc1Cl > 30 µM, Cn1c(=O)c2[nH]c(CN(Cc3ccccc3)Cc3ccccc3)nc2n(C)c1=O > 30 µM, Oc1ccc(CNCC2COc3ccccc3O2)cc1 (centres undefined) > 30 µM, Cc1ccc(OCCn2c(=S)[nH]c3c(N)ncnc32)cc1 > 30 µM, Nc1ccccc1Nc1cc(-c2ccccc2)[nH]n1 > 30 µM, Cc1cnc(C(=O)OCC(=O)N2c3ccccc3CC2C)cn1 (centres undefined) > 30 µM, COc1ccc(/C=N/Nc2ccc([N+](=O)[O-])cc2)cc1O > 30 µM, COc1ccccc1Nc1nc(N(C)c2ccccc2)nc(N)c1[N+](=O)[O-] > 30 µM, NNc1ncnc2c1cnn2-c1ccccc1 > 30 µM, Cc1ccc(C)c(N2CCN(C(=O)Cn3ncc4c([nH]c5ccc(C)cc54)c3=O)CC2)c1 > 30 µM, Cc1cc(OCCCn2ccnc2)ccc1[N+](=O)[O-] > 30 µM, CNc1nc(N)c([N+](=O)[O-])c(Nc2ccccc2OC)n1 > 30 µM, O=c1[nH]c(N/N=C/c2ccccc2)nc2ccccc12 > 30 µM, CC1=C(C(=O)OCc2ccccc2)C(c2ccccc2OC(F)F)NC(=O)N1 (centres undefined) > 30 µM, COC(=O)c1ccc(N2C(=O)CC(N3CCN(C(=O)c4ccco4)CC3)C2=O)cc1 (centres undefined) > 30 µM, COc1cccc2c1cc1c(=O)n(CC(=O)NCc3ccccn3)nc(C)n12 > 30 µM, CCn1c(-c2nn(C)cc2Cl)n[nH]c1=S > 30 µM, CCN(CC)Cc1c(O)ccc2occ(C(=O)c3ccc(OC)cc3)c12 > 30 µM, CC(=O)Nc1c(N)c2ccccc2oc1=O > 30 µM, CCOC(=O)c1cnc2ccc(C(=O)OC)cc2c1Nc1ccc(C(=O)O)cc1 > 30 µM, Cc1ccc2c(c1)NC(c1cccs1)C1=C(CC(C)(C)CC1=O)N2 (centres undefined) > 30 µM, CC(=O)c1ccc(NC(=O)NNS(=O)(=O)c2ccc([N+](=O)[O-])cc2)cc1 > 30 µM, Nc1nc(NCCO)nc(NCc2ccccc2)c1[N+](=O)[O-] > 30 µM, COc1ccccc1Nc1nc(NCc2ccco2)nc(N)c1[N+](=O)[O-] > 30 µM, CCc1ccc(C(=O)c2cnc3ccc(OC)cc3c2N2CCN(CC)CC2)cc1 > 30 µM, Cc1cc2c(N3CCCCC3C)ncnc2s1 (centres undefined) > 30 µM, CCC(C)Nc1nc(N)c([N+](=O)[O-])c(NC2CCCCC2)n1 (centres undefined) > 30 µM, COc1cc(/C=N/NC(=O)COc2ccccc2[N+](=O)[O-])ccc1OC(=O)c1ccco1 > 30 µM, O=[N+]([O-])c1ccc2[nH]c(O)c(N=NC3CS(=O)(=O)CC3O)c2c1 (centres undefined) > 30 µM, COc1ccc(Nc2nc3ccccc3s2)cc1 > 30 µM, COc1ccc(-c2nn(CCC(=O)O)cc2/C=C/C(=O)O)cc1[N+](=O)[O-] > 30 µM, COc1cc(/C=N/Nc2ccc(C(F)(F)F)cn2)ccc1O > 30 µM, CC1CCCCN1c1nnc(N)s1 (centres undefined) > 30 µM, CCOC(=O)c1cnc2ccc(OCC)cc2c1N1CCN(C)CC1 > 30 µM, CCn1nc(NC(=O)C2CCCO2)c2cc3cccc(C)c3nc21 (centres undefined) > 30 µM, Cc1cc(=O)[nH]c(N/N=C/c2ccc(-c3ccc([N+](=O)[O-])cc3)o2)n1 > 30 µM, CSc1nc2c(c(=O)[nH]1)C(c1cccs1)C1=C(CCCC1=O)N2 (centres undefined) > 30 µM, Cc1[nH][nH]c(=O)c1N=Nc1ccc(S(N)(=O)=O)cc1 > 30 µM
